Assay results published in paper PMC7476762.
These are yes or no findings as the source states them, for the method shown. In cells and extracts the contact can be indirect. Some entries that bind do so weakly or less than the wild type.

Chains of the proteins cited; added tags and fusions are not shown. Residues count along the entry.
UniProt P01024, residues 672-748: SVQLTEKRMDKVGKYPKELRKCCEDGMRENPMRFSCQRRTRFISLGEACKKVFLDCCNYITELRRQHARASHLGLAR

Target: T1, C3aR (human (endogenous in hNSC)) (UniProt Q16581)
T1 sequence: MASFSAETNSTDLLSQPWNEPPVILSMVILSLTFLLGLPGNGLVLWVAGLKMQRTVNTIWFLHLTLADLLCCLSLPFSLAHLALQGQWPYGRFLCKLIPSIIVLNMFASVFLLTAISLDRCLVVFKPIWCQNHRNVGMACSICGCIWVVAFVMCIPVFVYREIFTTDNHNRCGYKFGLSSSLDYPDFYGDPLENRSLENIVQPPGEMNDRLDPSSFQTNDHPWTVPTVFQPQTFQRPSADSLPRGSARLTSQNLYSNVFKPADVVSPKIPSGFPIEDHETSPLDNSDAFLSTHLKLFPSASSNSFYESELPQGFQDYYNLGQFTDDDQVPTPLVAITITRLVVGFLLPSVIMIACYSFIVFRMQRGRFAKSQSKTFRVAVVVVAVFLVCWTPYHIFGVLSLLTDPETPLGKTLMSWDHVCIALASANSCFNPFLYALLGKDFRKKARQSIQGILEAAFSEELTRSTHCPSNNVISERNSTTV
Assay: proximity ligation; matched ligand-receptor positive control C3a-C3aR on hNSC; Duolink in situ Red kit; fluorescent punctae per cell counted; source and concentration of C3a not told

binding: binds
Substance: C3a (from UniProt P01024 672-748) (ligand)
